Test results from PubChem BioAssay AID504834 (National Center for Advancing Translational Sciences (NCATS), 2011).
In all, about 320,000 compounds went through this assay and about 22,000 (6.9%) were called active. The inconclusive results got no clear call from the source; some entries with a clear call stand among them for comparison. Calls follow the shape of the dose curve; as a rule, active = well fitted inhibition curve with a large enough effect; inconclusive = small, poorly fitted or top-dose-only effect, or another doubt; inactive = no such curve, though single readings can be large or run the other way. Potencies beside an inconclusive call are fits to weak or partial responses and may not hold up.

Assay: Primary qHTS for delayed death inhibitors of the malarial parasite plastid, 96 hour incubation
Settings: P. falciparum luciferase reporter growth; series mostly up to 28.7 µM
How it was run: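 Two-generation exposure (96 h) targets delayed-death phenotype. Reporter parasites carrying integrated firefly luciferase, in red cells at 2% hematocrit and 0.05% parasitemia final, kept at 37 C, 5% CO2; luminescence loss indicates inhibition.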
Potency is read from the fitted curve at half-maximal effect.

Row | SMILES | Potency
1 | O=C(CC(Cc1ccccc1)C(=O)O)Nc1ccc(F)cc1 (stereo unspecified) | active: 2.33 µM
2 | Cc1cccc(Nc2nc(Cl)ncc2F)c1C | inactive
3 | CCOC(=O)Nc1c(Cl)n(C)c(=O)n(C)c1=O | inconclusive: 0.415 µM [inhibitor, full curve, poor fit]
4 | COc1ccc(CNC(=O)C(C)OC(=O)CO/N=C(\C)c2ccc3c(c2)OCO3)cc1 (stereo unspecified) | inconclusive: 13.1 µM [inhibitor, single point]
5 | CCOC(=O)C1(Cc2ccccc2C)CCCN(C(=O)c2ccoc2)C1 (stereo unspecified) | inconclusive: 10.4 µM [inhibitor, single point]
6 | CCOCCn1[nH]c2ccccc2c1=O | inconclusive: 18.5 µM [inhibitor, single point]
7 | COc1ccccc1CN1CC(C(=O)N(C)CCCn2nc(C)cc2C)CCC1=O (stereo unspecified) | inactive
8 | Cc1c(C(=O)OC(C)C)sc(N)c1C(=O)OC(C)C | inactive
9 | Cc1ccccc1CCN(CC(=O)NC1CCCCC1)C(=O)c1csnn1 | active: 11.7 µM
10 | CCOc1ccc(C2=Nc3ccc(Br)cc3C(c3ccc(N4CCOCC4)cc3)=NN2)cc1 | inconclusive: 18.5 µM [inhibitor, single point]
11 | O=C(Nc1nc(-c2ccccc2)cs1)C1CCCN(S(=O)(=O)c2cccc([N+](=O)[O-])c2)C1 (stereo unspecified) | inconclusive: 9.28 µM [inhibitor, single point]
12 | Cn1c(=O)c(=O)n(C)c2cc(S(=O)(=O)NCc3ccc(Cl)cc3)ccc21 | inconclusive: 18.5 µM [inhibitor, single point]
13 | Cc1cc(Nc2ccc(C)c(C)c2)n2nc(C)nc2n1 | inconclusive: 11.7 µM [inhibitor, single point]
14 | N/C(=N\OC(=O)c1ccc(=O)n(Cc2ccccc2)c1)c1ccccn1 | inconclusive: 4.15 µM [inhibitor, partial curve, poor fit]
15 | COc1ccc(NC(=O)Nc2ccncc2)c(OC)c1 | inactive
16 | CN1C(=O)/C(=C/c2cccc([N+](=O)[O-])c2)C(=O)N1c1ccccc1 | inconclusive: 14.7 µM [inhibitor, single point]
17 | NS(=O)(=O)c1ccc(NC(=O)CSc2nc3ccccc3[nH]2)cc1 | inactive
18 | N=C(N)SCc1nc2ccccn2c1Br | inconclusive: 18.5 µM [inhibitor, single point]
19 | CCOc1ccc(CCNC(=O)CN(C)S(=O)(=O)c2ccc3c(c2)CCC(=O)N3)cc1OCC | inconclusive: 2.62 µM [inhibitor, full curve]
20 | O=C(/C=C/c1c(F)cccc1Cl)c1ccc(O)cc1 | inconclusive: 18.5 µM [inhibitor, single point]
21 | CCOCCCNC(=O)C(c1ccccc1)N(Cc1ccc2c(c1)OCO2)C(=O)c1ccccc1O (stereo unspecified) | inconclusive: 18.5 µM [inhibitor, single point]
22 | CCNC(=S)N1CCN(CCN=CC2=C(O)CC(c3ccco3)CC2=O)CC1 (stereo unspecified) | inconclusive: 16.5 µM [inhibitor, single point]
23 | O=C1c2ccccc2-c2onc3c(N4CCN(CCO)CC4)cc(N4CCN(C(=O)c5ccco5)CC4)c1c23 | inconclusive: 1.31 µM [inhibitor, partial curve]

Row | SMILES | Potency
24 | COc1cccc(OC)c1-c1nn2c(-c3ccccc3Cl)nnc2s1 | inconclusive: 10.4 µM [inhibitor, single point]
25 | CCC(C(=O)Nc1cc(Cl)c(OC)cc1OC)c1ccccc1 (stereo unspecified) | inactive
26 | O=C(CN1C(=O)CSc2ccc(S(=O)(=O)N3CCCCC3)cc21)NCc1cccnc1 | active: 2.33 µM
27 | O=C(O)c1ccc(N2C(=O)CC(N3CCN(c4cccc(Cl)c4)CC3)C2=O)cc1 (stereo unspecified) | inconclusive: 9.28 µM [inhibitor, single point]
28 | COc1ccc(NC(=O)C(c2ccc(OC)cc2)N(Cc2ccco2)C(=O)CC2NC(=O)NC2=O)cc1 (stereo unspecified) | inconclusive: 7.38 µM [inhibitor, partial curve, poor fit]
29 | CCOC(=O)C1(CCCc2ccccc2)CCN(C(=O)CCc2cnccn2)CC1 | inconclusive: 11.7 µM [inhibitor, single point]
30 | COc1ccc(/C=N/c2oc(-c3ccccc3)cc2C#N)cc1OC | inactive
31 | Cc1ccc(Cn2ncc3c(N4CCCC4)ncnc32)cc1 | inconclusive: 16.5 µM [inhibitor, single point]
32 | CC1(C(=O)OCC(=O)NNC(=O)COc2ccc(Cl)cc2)CC1(Cl)Cl (stereo unspecified) | inactive
33 | Cc1onc(-c2ccccc2)c1C(=O)N1CCCN2C(=O)c3ccccc3C21 (stereo unspecified) | active: 10.4 µM
34 | CC(=O)CC(C)(C)Nc1nc2ccc([N+](=O)[O-])cc2o1 | inactive
35 | COc1cc(C(=O)Nc2nccs2)c(Br)c(OC)c1OC | inactive
36 | O=C(O)c1ccccc1NC(=O)C1CCCO1 (stereo unspecified) | inactive
37 | CCCNC(=S)N1CCC(C(=O)c2ccc(OC)cc2)CC1 | inconclusive: 16.5 µM [inhibitor, single point]
38 | O=C(CN1CCCN(Cc2ccc(F)cc2Cl)C1=O)NC1CCCCCC1 | inconclusive: 14.7 µM [inhibitor, partial curve, poor fit]
39 | COc1ccc(-n2c(Cc3cc(=O)[nH]c(=O)[nH]3)nnc2SCC(=O)N2CCC(C)CC2)cc1 | inconclusive: 18.5 µM [inhibitor, single point]
40 | COc1ccccc1C(=O)NCCCn1cc(Br)c(C)n1 | inconclusive: 5.22 µM [inhibitor, partial curve]
41 | CCOC(=O)c1cnc(Nc2nc3ccccc3o2)nc1C | inactive
42 | CC1(C)CC(=O)C2=C(C1)Nc1[nH]c(=S)[nH]c(=O)c1C2c1ccccc1 (stereo unspecified) | inactive
43 | O=C(NC1CC2CCCC(C1)N2C(=S)Nc1ccccc1Cl)C1CC1 (stereo unspecified) | inactive
44 | CCN(CC)c1ccc(NC(=O)CN2C(=O)CC(C)(C)S(=O)(=O)c3ccccc32)c(C)c1 | active: 8.28 µM
45 | CCn1c(=NC(=O)c2ccc(N3C(=O)CCC3=O)cc2)sc2c(OC)ccc(OC)c21 | inconclusive: 11.7 µM [inhibitor, single point]
46 | O=C(O)CCN1C(=O)c2ccc(NC(=O)C(c3ccccc3)c3ccccc3)cc2C1=O | inactive

Quoted from the listing:
Value of `CCOC(=O)C1(CCCc2ccccc2)CCN(C(=O)CCc2cnccn2)CC1` under Potency: inconclusive: 11.7 µM [inhibitor, single point]
Value of `NS(=O)(=O)c1ccc(NC(=O)CSc2nc3ccccc3[nH]2)cc1` under Potency: inactive
